Laboratory results taken from patent US20260259222A1, “METHOD OF DIAGNOSING WOUNDS” (TRAUMA CARE CONSULT TRAUMATOLOGISCHE FORSCHUNG …, priority 2022, published 2026).
At least one structure is not confirmed: it was looked up by name or label, or the drawing left a doubt.

Assays:
Format in all cases: cell-based
[1] = test system: p-rpS6 in human dermal fibroblasts (HDFs); assay: in vitro scratch assay, p-rpS6-positive cells (immunofluorescence); details: HDFs in basal medium; pre-treatment 10 to 30 min prior to scratch with 20 nM rapamycin or 10 μM U0126; fixed 30 min after scratch; vs DMSO
Method: (§1) To model a skin wound in vitro, cell cultures were subjected to a damage assay to monitor cellular response mechanisms. Commercially available human dermal fibroblasts (HDFs) were cultured in HDF medium (DMEM/F12 (Sigma Aldrich), 10% fetal bovine serum (Sigma Aldrich) and 4 mM L-Glutamine (Gibco)), subcultivated at 90% confluency and used for experiments below passage 15. Immortalised human keratinocytes (HaCaT) were maintained in HACAT medium (DMEM high glucose (Sigma Aldrich), 10% fetal bovine serum (Sigma Aldrich) and 2 mM L-Glutamine (Gibco) and subcultivated at 60% confluency. All cell culture experiments were performed in a humidified incubator at 37° C. and 5% CO2. […]
(§2) For immunofluorescence staining, the coverslips containing damaged and control cells were permeabilized using 0.5% Triton X100 for 5 min, washed three times with PBS for 5 min each, and blocked using PBS with 5% goat serum (VECS-1000, Vector Laboratories) for 1 h. […] For quantification of rpS6 and Erk phosphorylation, ten images per slide were taken along the scratch using an inverted microscope Nikon (Nikon Corporation, Tokyo, Japan) with set exposure times. These images were processed and quantified for total cell count and activated cell count (p-rpS6 or p-ERK positive cells) using set thresholds and particle analysis in Fiji. […]

[2] = test system: p-rpS6 in human dermal fibroblasts (HDFs); assay: passive scratch assay: DAMP-containing media from lacerated cells transferred to non-scratched recipient cells, p-rpS6 staining; details: 30 min incubation with drug
[3] = test system: p-Erk in human dermal fibroblasts (HDFs); assay: in vitro scratch assay, p-Erk-positive cells (immunofluorescence); details: HDFs in basal medium; pre-treatment 10 to 30 min prior to scratch with 20 nM rapamycin or 10 μM U0126; fixed 30 min after scratch; vs DMSO
Method: as §1, §2

Question: What does the source list for `CO[C@H]1C[C@@H]2CC[C@@H](C)[C@@](O)(O2)C(=O)C(=O)N2CCCC[C@H]2C(=O)O[C@H]([C@H](C)C[C@@H]2CC[C@@H](O)[C@H](OC)C2)CC(=O)[C@H](C)/C=C(\C)[C@@H](O)[C@@H](OC)C(=O)[C@H](C)C[C@H](C)/C=C/C=C/C=C/1C` [rapamycin]?
Answer: effect on p-rpS6 induction (number of cells positive for p-rpS6) in the scratch assay [1]: almost complete abrogation of the p-rpS6 induction; effect on frequency of p-rpS6-positive cells, drug added after zone formation (late/delayed) ([2]; rapamycin 30 min after administration of DAMP media, vs DMSO late): did not significantly affect the frequency of the p-rpS6-positive cells; effect on formation of the p-rpS6-zone, drug added at the beginning of the assay (immediate) ([2]; rapamycin immediately prior to addition of DAMPs, vs DMSO immediate): prevents formation of the p-rpS6-zone; effect on Erk phosphorylation (number of cells positive for p-Erk) in the scratch assay [3]: did not affect Erk phosphorylation
